The results in this text go back to PMC6881322.

Amino acid sequences for entries named in this document (tags omitted). Residues count along the entry.
UniProt P35968, residues 20-1356: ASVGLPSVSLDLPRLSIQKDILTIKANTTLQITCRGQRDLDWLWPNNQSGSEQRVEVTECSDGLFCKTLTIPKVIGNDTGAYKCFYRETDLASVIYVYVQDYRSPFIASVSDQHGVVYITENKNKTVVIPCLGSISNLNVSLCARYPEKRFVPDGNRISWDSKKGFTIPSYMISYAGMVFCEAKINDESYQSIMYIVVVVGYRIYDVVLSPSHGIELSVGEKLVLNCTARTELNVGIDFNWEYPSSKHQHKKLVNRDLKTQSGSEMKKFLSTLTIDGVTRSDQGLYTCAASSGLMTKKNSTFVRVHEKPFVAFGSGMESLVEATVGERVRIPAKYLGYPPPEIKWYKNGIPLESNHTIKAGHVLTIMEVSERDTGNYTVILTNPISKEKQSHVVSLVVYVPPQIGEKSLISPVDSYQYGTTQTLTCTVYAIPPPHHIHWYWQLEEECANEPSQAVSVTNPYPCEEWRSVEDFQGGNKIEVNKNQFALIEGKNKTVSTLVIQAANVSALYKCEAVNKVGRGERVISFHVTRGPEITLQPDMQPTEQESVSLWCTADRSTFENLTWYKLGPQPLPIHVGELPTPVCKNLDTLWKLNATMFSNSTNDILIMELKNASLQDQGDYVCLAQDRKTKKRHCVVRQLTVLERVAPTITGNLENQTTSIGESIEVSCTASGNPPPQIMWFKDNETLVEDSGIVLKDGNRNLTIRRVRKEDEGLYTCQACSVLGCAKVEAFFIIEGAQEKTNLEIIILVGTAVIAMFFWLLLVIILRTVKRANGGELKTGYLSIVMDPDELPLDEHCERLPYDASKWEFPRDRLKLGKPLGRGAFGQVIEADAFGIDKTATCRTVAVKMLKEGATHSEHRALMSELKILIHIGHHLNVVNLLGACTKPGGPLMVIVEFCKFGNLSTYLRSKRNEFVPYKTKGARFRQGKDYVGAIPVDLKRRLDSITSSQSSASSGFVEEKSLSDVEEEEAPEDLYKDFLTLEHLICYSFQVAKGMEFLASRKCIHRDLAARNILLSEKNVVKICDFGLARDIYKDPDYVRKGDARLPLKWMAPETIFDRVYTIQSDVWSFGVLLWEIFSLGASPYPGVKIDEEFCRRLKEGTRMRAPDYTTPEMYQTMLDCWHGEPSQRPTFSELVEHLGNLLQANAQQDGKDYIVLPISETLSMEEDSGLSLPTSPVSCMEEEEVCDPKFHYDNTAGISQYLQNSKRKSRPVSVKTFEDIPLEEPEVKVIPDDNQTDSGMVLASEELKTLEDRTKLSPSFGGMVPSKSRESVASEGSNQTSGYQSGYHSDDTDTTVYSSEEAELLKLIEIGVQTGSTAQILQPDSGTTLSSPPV
UniProt P78310, residues 20-365: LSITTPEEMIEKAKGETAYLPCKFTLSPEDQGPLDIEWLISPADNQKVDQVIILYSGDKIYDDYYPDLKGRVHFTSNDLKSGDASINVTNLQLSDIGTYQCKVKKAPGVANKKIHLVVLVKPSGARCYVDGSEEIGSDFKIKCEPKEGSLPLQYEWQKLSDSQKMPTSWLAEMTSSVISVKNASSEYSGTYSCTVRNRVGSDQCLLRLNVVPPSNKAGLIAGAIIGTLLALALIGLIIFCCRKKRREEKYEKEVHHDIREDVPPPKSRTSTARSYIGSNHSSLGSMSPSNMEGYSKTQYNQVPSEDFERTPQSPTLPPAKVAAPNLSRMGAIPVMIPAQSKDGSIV

For assay [1], the target named is T1, vascular endothelial cadherin (human (endogenous in HUVECs)) (UniProt P33151).
T1 sequence: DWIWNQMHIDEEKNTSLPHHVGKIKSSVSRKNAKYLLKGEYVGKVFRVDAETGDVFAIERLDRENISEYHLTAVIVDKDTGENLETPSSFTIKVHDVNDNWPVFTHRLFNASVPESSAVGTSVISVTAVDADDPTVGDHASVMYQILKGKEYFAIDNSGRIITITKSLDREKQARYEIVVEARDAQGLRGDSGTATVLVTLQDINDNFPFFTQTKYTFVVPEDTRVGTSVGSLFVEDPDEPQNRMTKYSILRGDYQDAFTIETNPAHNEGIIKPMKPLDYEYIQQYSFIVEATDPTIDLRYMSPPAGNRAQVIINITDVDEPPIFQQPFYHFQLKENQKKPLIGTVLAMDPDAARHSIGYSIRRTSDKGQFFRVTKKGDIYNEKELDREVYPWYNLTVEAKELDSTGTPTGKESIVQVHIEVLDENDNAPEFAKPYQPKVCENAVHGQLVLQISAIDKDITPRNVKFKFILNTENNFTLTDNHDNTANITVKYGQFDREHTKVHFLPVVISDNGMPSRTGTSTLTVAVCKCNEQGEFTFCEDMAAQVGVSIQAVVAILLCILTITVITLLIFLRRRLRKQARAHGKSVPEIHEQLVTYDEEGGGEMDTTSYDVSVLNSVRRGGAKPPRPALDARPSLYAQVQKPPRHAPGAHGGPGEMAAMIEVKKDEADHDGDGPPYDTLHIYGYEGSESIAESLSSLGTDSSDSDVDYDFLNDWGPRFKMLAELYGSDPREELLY
Nature of the assay: proximity ligation; Duolink in situ PLA on fixed HUVECs exposed to OSS (disturbed flow) for 24 h; endogenous proteins stained with anti-CAR and anti-VEGFR2, anti-VE-cadherin or anti-PECAM-1; siCAR-transfected cells as negative control.

For assay [2], the target named is vascular endothelial growth factor receptor 2 (human (endogenous in HUVECs)) (UniProt P35968). The assay is described as above.

These are yes or no findings as the source states them, for the method shown. Binding seen in cells or lysates may run through a third protein. Some binding calls cover weakened binding; strength is not graded here.

For “coxsackievirus and adenovirus receptor (from UniProt P78310 20-365)”, the binding entry in assay [1] and in assay [2] was “binds” each time.
